Results are given in words; binding and its absence hold for the method and conditions named. For some of these results: Binding seen in cells or lysates may run through a third protein. Some binding calls cover weakened binding; strength is not graded here. For some of these results: Sequences can lack the tags named with a protein.
Key:
[1] = biological target: T1, Flag-LZAP (LXXLL/leucine zipper-containing ARF-binding protein) (UniProt Q96JB5); experiment: co-IP; U2OS cells transfected with Flag-LZAP with or without GFP-p53; lysed in RIPA buffer; LZAP precipitated with anti-Flag affinity agarose; blot with GFP and Flag antibodies
T1 sequence: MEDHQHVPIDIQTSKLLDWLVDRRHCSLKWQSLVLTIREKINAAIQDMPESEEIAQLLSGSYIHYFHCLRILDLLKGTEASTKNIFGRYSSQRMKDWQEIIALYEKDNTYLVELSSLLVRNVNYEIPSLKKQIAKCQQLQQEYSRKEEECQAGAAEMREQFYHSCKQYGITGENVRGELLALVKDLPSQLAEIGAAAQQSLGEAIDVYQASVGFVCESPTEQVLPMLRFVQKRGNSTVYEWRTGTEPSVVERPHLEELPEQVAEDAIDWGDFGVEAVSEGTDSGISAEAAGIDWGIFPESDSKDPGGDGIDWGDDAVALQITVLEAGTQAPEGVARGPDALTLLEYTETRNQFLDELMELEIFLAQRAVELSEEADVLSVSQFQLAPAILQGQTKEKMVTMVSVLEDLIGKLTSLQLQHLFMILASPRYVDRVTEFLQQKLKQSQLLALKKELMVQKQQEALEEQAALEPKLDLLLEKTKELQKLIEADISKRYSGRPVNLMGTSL

Sequences of proteins named here, by UniProt entry; tags and fusion partners are left off.
UniProt Q00987: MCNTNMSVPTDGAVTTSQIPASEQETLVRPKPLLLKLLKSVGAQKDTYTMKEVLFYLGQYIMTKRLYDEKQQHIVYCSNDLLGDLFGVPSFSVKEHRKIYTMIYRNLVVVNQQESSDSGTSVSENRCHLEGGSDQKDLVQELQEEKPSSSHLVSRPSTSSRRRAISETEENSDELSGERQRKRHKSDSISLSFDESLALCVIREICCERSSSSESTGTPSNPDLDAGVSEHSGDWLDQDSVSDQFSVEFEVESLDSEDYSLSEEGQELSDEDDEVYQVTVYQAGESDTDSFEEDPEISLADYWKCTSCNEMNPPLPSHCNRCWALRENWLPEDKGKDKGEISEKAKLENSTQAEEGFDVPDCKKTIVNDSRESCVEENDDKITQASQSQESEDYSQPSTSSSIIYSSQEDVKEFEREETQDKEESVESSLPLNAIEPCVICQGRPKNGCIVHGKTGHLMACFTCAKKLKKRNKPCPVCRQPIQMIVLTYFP

[2] = biological target: T2, Recombinant LZAP (UniProt Q96JB5); experiment: co-IP; as a2/a3 but in the presence of nutlin (HDM2 inhibitor); recombinant proteins; agarose beads conjugated with LZAP or p53 antibodies; blots for HDM2, LZAP, p53; both purified
T2 sequence: T1 sequence

[3] = biological target: T2, Recombinant LZAP; experiment: co-IP; about 100 ng of each recombinant protein in PBS, 0.05% Triton X100, 100 mM NaCl, 0.05% BSA, 1 h at 4°C; precipitated with LZAP custom antiserum on Protein A/G agarose; blots for HDM2, LZAP, p53, GST; both purified

Substance	binding [1]	binding [2]	binding [3]
GFP-p53 (wild type) (from UniProt P04637 1-393)	binds	–	–
Recombinant human GST-HDM2 (from UniProt Q00987 1-491)	–	binds	binds
Recombinant human p53 (from UniProt P04637 1-393)	–	–	binds
